# Test results published in the supplement of paper PMC3334620.
# The full ranking holds about 33,000 sequences; the median of “E-score (-0.5 to 0.5)” is about -8e-05, and the highest 2% start at about 0.23. Some of the results follow.
# Molecular target: T1, Nrg2 (UniProt P38082)
# T1 sequence: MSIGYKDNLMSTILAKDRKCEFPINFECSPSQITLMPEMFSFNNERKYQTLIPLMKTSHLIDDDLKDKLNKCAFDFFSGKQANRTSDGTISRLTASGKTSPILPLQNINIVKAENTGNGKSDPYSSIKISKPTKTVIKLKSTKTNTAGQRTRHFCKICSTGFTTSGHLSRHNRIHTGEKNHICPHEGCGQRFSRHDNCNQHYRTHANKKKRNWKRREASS
# Experiment: PBM E-score (8-mer binding enrichment) (E-score (-0.5 to 0.5)); higher = stronger / more preferred TF binding
# Details: protein concentration: 100 nM; construct: GST-full length
# Summary of the method: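 For each ungapped eight-base word taken together with its reverse complement, the Universal PBM Analysis Suite assigned an E-score. Binding data came from GST-tagged yeast transcription factors, applied at about 100-200 nM, on universal all-10-mer Agilent arrays made double-stranded by primer extension. Fluorescent anti-GST marked bound protein, and scans were normalised with masliner.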
row,Sequence,PBM E-score
1,AGCTTCTA,-0.148
2,AATAAGTG,-0.0251
3,GAATCCTC,-0.1
4,CCCAGCTC,0.018
5,CAGAGTCC,0.0801
6,CGTGGCAC,-0.165
7,ACGTACAA,0.0534
8,CTTTAGGC,-0.219
9,CCCTAGCC,-0.0659
10,GCCCGGCA,-0.287
11,ATGGGAGG,0.0102
12,ATGACGCA,0.151
13,CTCAACGA,-0.0772
14,CGGGTGTA,-0.0883
15,TACAGCGA,-0.147
16,CTTGTACC,0.0322
17,GCTTTCCC,-0.0594
18,AAGGTTAC,0.0901
19,ATTCAATG,0.0492
20,AAATGGCT,0.0362
21,ACTACTAC,0.0486
22,ATCGTCTC,-0.0282
23,TGCATGCA,0.233
24,AGCTCGTA,0.0247
25,AGCTCACT,-0.0273

row,Sequence,PBM E-score
1,CCAGCCAA,-0.0522
2,CGTTGCTA,0.059
3,AGTTCGTG,0.0974
4,AGCTATCG,-0.0852
5,CGTGTTGA,-0.129
6,CTTAACGA,0.123
7,GTACTTGA,-0.156
8,CCTCGTAG,-0.083
9,CGCGGCAA,0.0589
10,ATTTCATA,0.143
11,ACTACATG,0.0529
12,GTCAGGCA,-0.108
13,CGGATACG,-0.0756
14,ATCTACGG,0.00925
15,ACAAAGAG,-0.0475
16,CAGTCGGC,-0.12
17,CAGTGATG,-0.0399
18,AAAAAATC,0.126
19,ACTTGGAC,0.157
20,CCGCTGAG,-0.0786
21,GGGGGGAC,-0.374
22,ACCTGCCG,0.0141
23,ACCTTCTC,0.0642
24,ATTGCGCC,-0.0677
25,AGCGGCTA,0.0469

row,Sequence,PBM E-score
1,TCAATGAA,0.0879
2,AGACATAG,-0.081
3,CGAACATA,0.158
4,CTATGTGA,0.0144
5,AGGTTAGC,-0.202
6,AGAACACA,-0.00037
7,TAGACCAA,0.121
8,GCACCTAC,-0.209
9,GGATCCCA,-0.0316
10,CAGTCAAG,0.0398
11,TATTCGAA,0.00532
12,CACCGGTA,-0.116
13,CAGCTGTA,-0.00792
14,CAGAAAAC,0.0955
15,GTCAACAC,0.0472
16,ACGGCTCG,0.0931
17,CAACAGAC,0.043
18,TGACGGCA,-0.135
19,AATGTACT,0.225
20,CTAGTCCC,-0.024
21,CCATCGTC,-0.0303
22,CACTGGTA,-0.0865
23,ATCACTAG,-0.0341
24,AATAGAAT,0.00976
25,GGTACACC,-0.245

row,Sequence,PBM E-score
1,GAGTCCAA,-0.0123
2,GTACGCAC,-0.0104
3,ATCGCCCG,0.0967
4,ACCGGTCA,-0.103
5,CCAGAACG,0.0997
6,AGCAGGCT,-0.212
7,ACTTCTCT,-0.0324
8,CTGACTTA,0.0683
9,AATTGCCC,0.014
10,TACCGTGA,-0.078
11,GAGACGGA,-0.00134
12,CTTACATC,0.0569
13,ATGGTGCA,-0.0977
14,ATAGAGCG,-0.0355
15,CTTGAGTC,-0.0018
16,ACTGTCAA,-0.00935
17,CAGATCTA,-0.267
18,CACCATGA,-0.00138
19,ATCACATA,0.156
20,GACGGTAC,-0.0512
21,GGATTCCA,0.0661
22,CACGGGTC,0.0696
23,CGCCCCTC,-0.0933
24,GATGAGCC,-0.0536
25,GGCTTCCA,-0.186

row,Sequence,PBM E-score
1,ATGATAAC,0.108
2,AGGTATGA,0.0294
3,ATGCAACG,-0.0466
4,ACAACGTC,-0.0313
5,CGCGAACA,0.264
6,CTTTCCGA,-0.0403
7,ATGACCGC,-0.059
8,ACTGATCA,0.109
9,AATTGCTC,-0.145
10,ATAGATTA,0.185
11,GCCCGAAA,0.206
12,CCGCTTTA,-0.0859
13,GGGTGTTA,0.0762
14,AGACGCTG,-0.11
15,GCCGTCCA,0.0263
16,CATCGCAG,-0.115
17,CCCTAGCG,-0.134
18,ACAATCAA,0.0743
19,GACGGAGC,-0.195
20,AAATGATG,0.184
21,AACGACAA,0.106
22,AGATTATC,-0.0331
23,ATCGGTGA,0.0722
24,ATTACCGA,0.0314
25,AGTCCACG,0.0976

# 53 entries from above in another layout:
row | Sequence | PBM E-score
22 | CACTGGTA | -0.0865
23 | ATCACTAG | -0.0341
24 | AATAGAAT | 0.00976
25 | GGTACACC | -0.245
1 | GAGTCCAA | -0.0123
2 | GTACGCAC | -0.0104
3 | ATCGCCCG | 0.0967
4 | ACCGGTCA | -0.103
5 | CCAGAACG | 0.0997
6 | AGCAGGCT | -0.212
7 | ACTTCTCT | -0.0324
8 | CTGACTTA | 0.0683
9 | AATTGCCC | 0.014
10 | TACCGTGA | -0.078
11 | GAGACGGA | -0.00134
12 | CTTACATC | 0.0569
13 | ATGGTGCA | -0.0977
14 | ATAGAGCG | -0.0355
15 | CTTGAGTC | -0.0018
16 | ACTGTCAA | -0.00935
17 | CAGATCTA | -0.267
18 | CACCATGA | -0.00138
19 | ATCACATA | 0.156
20 | GACGGTAC | -0.0512
21 | GGATTCCA | 0.0661
22 | CACGGGTC | 0.0696
23 | CGCCCCTC | -0.0933
24 | GATGAGCC | -0.0536
25 | GGCTTCCA | -0.186
1 | ATGATAAC | 0.108
2 | AGGTATGA | 0.0294
3 | ATGCAACG | -0.0466
4 | ACAACGTC | -0.0313
5 | CGCGAACA | 0.264
6 | CTTTCCGA | -0.0403
7 | ATGACCGC | -0.059
8 | ACTGATCA | 0.109
9 | AATTGCTC | -0.145
10 | ATAGATTA | 0.185
11 | GCCCGAAA | 0.206
12 | CCGCTTTA | -0.0859
13 | GGGTGTTA | 0.0762
14 | AGACGCTG | -0.11
15 | GCCGTCCA | 0.0263
16 | CATCGCAG | -0.115
17 | CCCTAGCG | -0.134
18 | ACAATCAA | 0.0743
19 | GACGGAGC | -0.195
20 | AAATGATG | 0.184
21 | AACGACAA | 0.106
22 | AGATTATC | -0.0331
23 | ATCGGTGA | 0.0722
24 | ATTACCGA | 0.0314

# (further entries)

row,Sequence,PBM E-score
1,CACATTCG,-0.00134
2,CTCCCTAA,-0.22
3,CCGTTATC,-0.0633
4,AGCGAAGG,0.0397
5,AATGCTCA,-0.0147
6,GAAGCGCA,-0.0254
7,GCCTCTAC,-0.0801
8,ATAAGTTA,0.197
9,GGTAATAC,0.0271
10,AGGGTCAA,0.236
11,CCAGCAGC,-0.124
12,ACCGATAA,0.00346
13,GTCGTAAC,-0.014
14,AGCCCTTA,-0.16
15,ACTAGCAG,0.0356
16,CTGTAGTC,-0.00649
17,AGCTCTAC,-0.0559
18,GAATTCCC,-0.129
19,CCTTGCCA,-0.104
20,ATACTAAG,0.0208
21,ATGCTGCC,-0.0349
22,CCGAGAAA,0.17
23,CTCAGTCC,-0.323
24,CAACCATA,0.0591
25,CGAATCAA,0.22

row,Sequence,PBM E-score
1,CGCGTGCA,-0.103
2,CCGTGTAG,0.031
3,GCGTAAGC,-0.212
4,CAGCTATA,0.0723
5,CGCTAAGA,-0.0436
6,ATGCATAG,-0.0009
7,GGGAGATA,0.138
8,AGTATGAT,0.223
9,TCATCGAA,0.00841
10,CGAACACA,0.135
11,AGAGAATC,0.058
12,CCGATCGC,0.0306
13,GTCTAAAA,-0.0766
14,CCGGTGAG,-0.149
15,GGCGAGCA,0.111
16,ACGTTTTG,-0.0711
17,CGCGGTTA,0.0611
18,AAAGGTGA,-0.124
19,GGATTGCA,0.133
20,ATAAACGG,0.0585
21,GATGATAC,-0.0297
22,TACATACA,0.199
